No constants are given. Whether binding was seen depends on the method and setting. Binding seen in cells or lysates may run through a third protein. Sequences can lack the tags named with a protein.
Experiments:
[1] = target: T1, Nrp1 b1b2 domain (residues 270-588), His-tagged (UniProt P97333); assay: co-IP; His-tagged Nrp1, a1a2, b1b2 or c (100 nM; 10 pmol in 100 uL PBS) mixed with AP-Sema3A (0, 50 or 100 nM), precipitated with 2 ug anti-6x-His monoclonal antibody; AP-Sema3A in the precipitate quantified by alkaline phosphatase activity (pNPP)
T1 sequence: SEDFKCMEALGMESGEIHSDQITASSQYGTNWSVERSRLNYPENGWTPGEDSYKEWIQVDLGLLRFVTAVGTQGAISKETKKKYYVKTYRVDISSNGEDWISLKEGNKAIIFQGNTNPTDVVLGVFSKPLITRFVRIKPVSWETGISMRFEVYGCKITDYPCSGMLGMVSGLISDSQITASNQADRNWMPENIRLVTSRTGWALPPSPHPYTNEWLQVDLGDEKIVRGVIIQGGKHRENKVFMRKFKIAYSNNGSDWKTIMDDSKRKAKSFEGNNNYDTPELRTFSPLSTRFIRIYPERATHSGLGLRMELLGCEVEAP

[2] = target: T2, Nrp1 c domain (residues 589-854), His-tagged (UniProt P97333); assay: as above
T2 sequence: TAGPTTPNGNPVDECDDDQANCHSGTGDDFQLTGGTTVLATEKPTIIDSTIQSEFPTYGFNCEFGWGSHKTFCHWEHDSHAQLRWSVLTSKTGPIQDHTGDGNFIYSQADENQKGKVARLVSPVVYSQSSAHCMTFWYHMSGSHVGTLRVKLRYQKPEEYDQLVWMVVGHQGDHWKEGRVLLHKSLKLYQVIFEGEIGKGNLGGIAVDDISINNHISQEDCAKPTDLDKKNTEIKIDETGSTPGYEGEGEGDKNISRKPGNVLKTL

B1: alkaline phosphatase-fused Sema3A (ligand, UniProt Q90607 23-772)
chain: QHVKNNVPRLKLSYKEMLESNNIVNFNGLANSSSYHTFLLDEERSRLYVGAKDHIFSFNLVNIKEYQKIVWPVSHSRRDECKWAGKDILRECANFIKVLKTYNQTHLYACGTGAFHPMCTYIEVGSHPEDNIFRMEDSHFENGRGKSPYDPKLLTASLLVDGELYSGTAADFMGRDFAIFRTLGHHHPIRTEQHDSRWLNDPRFISAHLIPESDNPEDDKIYFFFRENAIDGEHTGKATHARIGQICKNDFGGHRSLVNKWTTFLKARLICSVPGPNGIDTHFDELQDVFLMNSKDPKNPIVYGVFTTSSNIFKGSAVCMYSMTDVRRVFLGPYAHRDGPNYQWVPYQGRVPYPRPGTCPSKTFGGFDSTKDLPDEVITFARSHPAMYNPVFPINSRPIMIKTDVDYQFTQIVVDRVDAEDGQYDVMFIGTDIGTVLKVVSIPKETWHELEEVLLEEMTVFREPTVISAMKISTKQQQLYIGSATGVSQLPLHRCDVYGKACAECCLARDPYCAWDGSSCSRYFPTAKRRTRRQDIRNGDPLTHCSDLQHHDNPSGQTLEEKIIYGVENSSTFLECSPKSQRAIVYWQFQKQNDDHKVEIKVDDRMIRTEQGLLLRSLQRRDSGIYFCHAVEHGFIQTLLKVTLEVIDTDHLEELLHKEEDADASKTKDATNSMTPSQKIWYRDFMQLINHPNLNTMDEFCEQVWKRDRKQRRQRPANAQVNTNKWKHLQENKKGRNRRTHEFERAPRSV
[1]
  binding: no binding (tested: 100 nM AP-Sema3A with 100 nM b1b2)
[2]
  binding: no binding (tested: 100 nM AP-Sema3A with 100 nM c)
